From the supplement of paper PMC8728848
The other results are listed elsewhere or left out.

What was measured:
Assay in all cases: glycan array binding signal (z-score within array); higher = stronger binding
Details in all cases: glycan notation: IUPAC condensed, linker removed
[1] = molecular target: Neu5Ac(a2-6)Gal(b1-4)GlcNAc(b1-3)Gal(b1-4)GlcNAc(b1-3)Gal(b1-4)GlcNAc(b1-2)Man(a1-3)[Neu5Ac(a2-6)Gal(b1-4)GlcNAc(b1-3)Gal(b1-4)GlcNAc(b1-3)Gal(b1-4)GlcNAc(b1-2)Man(a1-6)]GalNAc
In short: (§1)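 The binding signal is a Z-score computed within each array and averaged over linkers. Arrays of the same protein sequence at different concentrations or buffers were also averaged together. Data originate from 3228 arrays in the Consortium for Functional Glycomics database, kept only where the protein sequence was available.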

[2] = molecular target: Neu5Ac(a2-6)Gal(b1-4)GlcNAc(b1-3)Gal(b1-4)GlcNAc(b1-3)GalNAc
In short: as §1

[3] = molecular target: Neu5Ac(a2-6)Gal(b1-4)GlcNAc(b1-3)Gal(b1-4)GlcNAc(b1-3)[Neu5Ac(a2-6)Gal(b1-4)GlcNAc(b1-3)Gal(b1-4)GlcNAc(b1-6)]GalNAc
In short: as §1

[4] = molecular target: Neu5Ac(a2-6)Gal(b1-4)GlcNAc(b1-3)Gal(b1-4)GlcNAc(b1-6)[Gal(b1-3)]GalNAc
In short: as §1

[5] = molecular target: Neu5Ac(a2-6)Gal(b1-4)GlcNAc(b1-3)Gal(b1-4)[Fuc(a1-3)]GlcNAc(b1-3)Gal(b1-4)[Fuc(a1-3)]GlcNAc
In short: as §1

[6] = molecular target: Neu5Ac(a2-6)Gal(b1-4)GlcNAc(b1-3)GalNAc
In short: as §1

[7] = molecular target: Neu5Ac(a2-6)Gal(b1-4)GlcNAc(b1-3)[Neu5Ac(a2-6)Gal(b1-4)GlcNAc(b1-6)]GalNAc
In short: as §1

[8] = molecular target: Neu5Ac(a2-6)Gal(b1-4)GlcNAc(b1-6)GalNAc
In short: as §1

[9] = molecular target: Neu5Ac(a2-6)Gal(b1-4)GlcNAc(b1-6)[Gal(b1-3)GlcNAc(b1-3)]Gal(b1-4)Glc
In short: as §1

[10] = molecular target: Neu5Ac(a2-6)Gal(b1-4)GlcNAc(b1-6)[Gal(b1-3)]GalNAc
In short: as §1

[11] = molecular target: Neu5Ac(a2-6)Gal(b1-4)GlcNAc6S
In short: as §1

Neu5Ac(a2-6)GalNAc = molecular target: Neu5Ac(a2-6)GalNAc
In short: as §1

[12] = molecular target: Neu5Ac(a2-6)GalNAc(b1-4)GlcNAc
In short: as §1

[13] = molecular target: Neu5Ac(a2-6)GalNAc(b1-4)GlcNAc6S
In short: as §1

[14] = molecular target: Neu5Ac(a2-6)GlcNAc(b1-4)GlcNAc
In short: as §1

[15] = molecular target: Neu5Ac(a2-6)GlcNAc(b1-4)GlcNAc(b1-4)GlcNAc
In short: as §1

Neu5Ac(a2-8)Neu5Ac = molecular target: Neu5Ac(a2-8)Neu5Ac
In short: as §1

[16] = molecular target: Neu5Ac(a2-8)Neu5Ac(a2-3)Gal(b1-3)GalNAc(b1-4)[Neu5Ac(a2-3)]Gal(b1-4)Glc
In short: as §1

[17] = molecular target: Neu5Ac(a2-8)Neu5Ac(a2-3)Gal(b1-3)GalNAc(b1-4)[Neu5Ac(a2-8)Neu5Ac(a2-3)]Gal(b1-4)Glc
In short: as §1

[18] = molecular target: Neu5Ac(a2-8)Neu5Ac(a2-3)Gal(b1-4)Glc
In short: as §1

[19] = molecular target: Neu5Ac(a2-8)Neu5Ac(a2-3)Gal(b1-4)GlcNAc
In short: as §1

[20] = molecular target: Neu5Ac(a2-8)Neu5Ac(a2-3)[Gal(b1-3)GalNAc(b1-4)]Gal(b1-4)Glc
In short: as §1

[21] = molecular target: Neu5Ac(a2-8)Neu5Ac(a2-3)[GalNAc(b1-4)]Gal(b1-4)Glc
In short: as §1

[22] = molecular target: Neu5Ac(a2-8)Neu5Ac(a2-8)Neu5Ac
In short: as §1

[23] = molecular target: Neu5Ac(a2-8)Neu5Ac(a2-8)Neu5Ac(a2-3)Gal(b1-4)Glc
In short: as §1

[24] = molecular target: Neu5Ac(a2-8)Neu5Ac(a2-8)Neu5Ac(a2-3)[Gal(b1-3)GalNAc(b1-4)]Gal(b1-4)Glc
In short: as §1

[25] = molecular target: Neu5Ac(a2-8)Neu5Ac(a2-8)Neu5Ac(a2-3)[GalNAc(b1-4)]Gal(b1-4)Glc
In short: as §1

[26] = molecular target: Neu5Ac(a2-8)Neu5Ac(a2-8)Neu5Ac(a2-8)Neu5Ac(a2-3)[GalNAc(b1-4)]Gal(b1-4)Glc
In short: as §1

[27] = molecular target: Neu5Ac(a2-8)Neu5Gc(a2-3)Gal(b1-4)GlcNAc
In short: as §1

[28] = molecular target: Neu5Ac(b2-6)Gal(b1-4)GlcNAc
In short: as §1

Neu5Ac(b2-6)GalNAc = molecular target: Neu5Ac(b2-6)GalNAc
In short: as §1

[29] = molecular target: Neu5Ac9Ac(a2-3)Gal(b1-3)GlcNAc
In short: as §1

[30] = molecular target: Neu5Ac9Ac(a2-3)Gal(b1-4)GlcNAc
In short: as §1

[31] = molecular target: Neu5Ac9Ac(a2-6)Gal(b1-4)GlcNAc
In short: as §1

[32] = molecular target: Neu5Gc(a2-3)Gal(b1-3)GlcNAc
In short: as §1

[33] = molecular target: Neu5Gc(a2-3)Gal(b1-3)[Fuc(a1-4)]GlcNAc
In short: as §1

Neu5Gc(a2-3)Gal(b1-4)Glc = molecular target: Neu5Gc(a2-3)Gal(b1-4)Glc
In short: as §1

[34] = molecular target: Neu5Gc(a2-3)Gal(b1-4)GlcNAc
In short: as §1

[35] = molecular target: Neu5Gc(a2-3)Gal(b1-4)GlcNAc(b1-3)Gal(b1-4)GlcNAc(b1-2)Man(a1-3)[Neu5Gc(a2-3)Gal(b1-4)GlcNAc(b1-3)Gal(b1-4)GlcNAc(b1-2)Man(a1-6)]Man(b1-4)GlcNAc(b1-4)GlcNAc
In short: as §1

[36] = molecular target: Neu5Gc(a2-3)Gal(b1-4)[Fuc(a1-3)]GlcNAc
In short: as §1

[37] = molecular target: Neu5Gc(a2-6)Gal(b1-4)GlcNAc
In short: as §1

Neu5Gc(a2-6)GalNAc = molecular target: Neu5Gc(a2-6)GalNAc
In short: as §1

[38] = molecular target: Neu5Gc(a2-8)Neu5Ac(a2-3)Gal(b1-4)GlcNAc
In short: as §1

[39] = molecular target: Neu5Gc(a2-8)Neu5Gc(a2-3)Gal(b1-4)GlcNAc
In short: as §1

[40] = molecular target: Neu5Gc(a2-8)Neu5Gc(a2-3)Gal(b1-4)GlcNAc(b1-3)Gal(b1-4)GlcNAc
In short: as §1

[41] = molecular target: Neu5Gc(a2-8)Neu5Gc(a2-6)Gal(b1-4)GlcNAc
In short: as §1

[42] = molecular target: Neu5Gc(b2-6)Gal(b1-4)GlcNAc
In short: as §1

B1: Erv46-EDTA (Saccharomyces cerevisiae), P39727 (protein)
chain: MKFLVNVALVFMVVYISYIYAAAPEHHHHHHDYDIPTTENLYFQGAMDSVVTRPQLVVDRDRHAKLELNMDVTFPSMPCDLVNLDIMDDSGEMQLDILDAGFTMSRLNSEGRPVGDATELHVGGNGDGTAPVNNDPNYCGPCYGAKDQSQNENLAQEEKVCCQDCDAVRSAYLEAGWAFFDGKNIEQCEREGYVSKINEHLNEGCRIKGSAQINRIQGNLHFAPGKPYQNAYGHFHDTSLYDKTSNLNFNHIINHLSFGKPIQSHSKLLGNDKRHGGAVVATSPLDGRQVFPDRNTHFHQFSYFAKIVPTRYEYLDNVVIETAQFSATFHSRPLAGGRDKDHPNTLHVRGGIPGMFVFFEMSPLKVINKEQ
[1]
  glycan array binding signal (z-score): 3.54
[2]
  glycan array binding signal (z-score): -0.032
[3]
  glycan array binding signal (z-score): 0.134
[4]
  glycan array binding signal (z-score): -0.333
[5]
  glycan array binding signal (z-score): 0.355
[6]
  glycan array binding signal (z-score): -0.433
[7]
  glycan array binding signal (z-score): -0.309
[8]
  glycan array binding signal (z-score): -0.855
[9]
  glycan array binding signal (z-score): 0.307
[10]
  glycan array binding signal (z-score): -0.492
[11]
  glycan array binding signal (z-score): -0.686
Neu5Ac(a2-6)GalNAc
  glycan array binding signal (z-score): -1.03
[12]
  glycan array binding signal (z-score): -0.615
[13]
  glycan array binding signal (z-score): -0.583
[14]
  glycan array binding signal (z-score): -0.42
[15]
  glycan array binding signal (z-score): -0.318
Neu5Ac(a2-8)Neu5Ac
  glycan array binding signal (z-score): -0.058
[16]
  glycan array binding signal (z-score): -0.029
[17]
  glycan array binding signal (z-score): 0.502
[18]
  glycan array binding signal (z-score): -0.647
[19]
  glycan array binding signal (z-score): -0.501
[20]
  glycan array binding signal (z-score): -0.605
[21]
  glycan array binding signal (z-score): 0.381
[22]
  glycan array binding signal (z-score): -0.012
[23]
  glycan array binding signal (z-score): -0.677
[24]
  glycan array binding signal (z-score): 1.25
[25]
  glycan array binding signal (z-score): -0.316
[26]
  glycan array binding signal (z-score): 0.023
[27]
  glycan array binding signal (z-score): -0.576
[28]
  glycan array binding signal (z-score): -0.403
Neu5Ac(b2-6)GalNAc
  glycan array binding signal (z-score): -0.481
[29]
  glycan array binding signal (z-score): 0.057
[30]
  glycan array binding signal (z-score): -0.546
[31]
  glycan array binding signal (z-score): -0.848
[32]
  glycan array binding signal (z-score): 0.38
[33]
  glycan array binding signal (z-score): 0.376
Neu5Gc(a2-3)Gal(b1-4)Glc
  glycan array binding signal (z-score): -0.748
[34]
  glycan array binding signal (z-score): -0.531
[35]
  glycan array binding signal (z-score): 0.192
[36]
  glycan array binding signal (z-score): 0.625
[37]
  glycan array binding signal (z-score): -0.2
Neu5Gc(a2-6)GalNAc
  glycan array binding signal (z-score): -0.516
[38]
  glycan array binding signal (z-score): -0.817
[39]
  glycan array binding signal (z-score): -0.338
[40]
  glycan array binding signal (z-score): -0.449
[41]
  glycan array binding signal (z-score): -0.091
[42]
  glycan array binding signal (z-score): -0.611
